Consider one molecule from publication PMC3540817, “Transfer of a Redox-Signal through the Cytosol by Redox-Dependent Microcompartmentation of Glycolytic Enzymes at Mitochondria and Actin Cytoskeleton” (Frontiers in Plant Science, 2012).

The assay concerns the target TOM40. In words: far-Western, overlay or dot blot; VDAC3 in liposomes (controls: empty liposomes, TOM40) spotted on nitrocellulose, overlaid with 100 μg/ml aldolase without reductant (oxidized); anti-aldolase antibody; both purified.

Results are given in words; binding and its absence hold for the method and conditions named.

B1: recombinant cytosolic fructose 1,6-bisphosphate aldolase (FBA6, At2g36460) (enzyme, A. thaliana, UniProt Q9SJQ9 1-358, looked up)
chain: MSSFTSKFADELIANAAYIGTPGKGILAADESTGTIGKRLASINVENVESNRRALRELLFTTPGALPCLSGVILFEETLYQKSSDGTPFVDMLKSAGVLPGIKVDKGTVELAGTNGETTTQGLDGLGDRCKKYYEAGARFAKWRAVLKIGVNEPSQLAIHENAYGLARYAVICQENGLVPIVEPEILVDGSHDIQKCAAVTERVLAACYKALSDHHVLLEGTLLKPNMVTPGSESAKVAPEVIAEHTVRALQRTVPAAVPAIVFLSGGQSEEEATRNLNAMNQLKTKKPWSLSFSFGRALQQSTLKTWGGKEENVKKAQEAFLVRCKANSEATLGAYKGDAKLGEGAAESLHVKDYKY
notes: cytosolic fructose 1,6-bisphosphate aldolase FBA6, A. thaliana, At2g36460; Redox reagents were added to the mixtures; no modified residues are named; the redox state is told by the assay; source: recombinant, purified
Consider B1, for which the binding result is listed as “no binding (tested: 100 μg/ml)”.
